Here are results for one substance from publication doi:10.1101/2021.03.11.434947.

Sequences of proteins named here, by UniProt entry; tags and fusion partners are left off. A change or cut given only in a name is not applied to a line headed by its entry.
UniProt Q24114: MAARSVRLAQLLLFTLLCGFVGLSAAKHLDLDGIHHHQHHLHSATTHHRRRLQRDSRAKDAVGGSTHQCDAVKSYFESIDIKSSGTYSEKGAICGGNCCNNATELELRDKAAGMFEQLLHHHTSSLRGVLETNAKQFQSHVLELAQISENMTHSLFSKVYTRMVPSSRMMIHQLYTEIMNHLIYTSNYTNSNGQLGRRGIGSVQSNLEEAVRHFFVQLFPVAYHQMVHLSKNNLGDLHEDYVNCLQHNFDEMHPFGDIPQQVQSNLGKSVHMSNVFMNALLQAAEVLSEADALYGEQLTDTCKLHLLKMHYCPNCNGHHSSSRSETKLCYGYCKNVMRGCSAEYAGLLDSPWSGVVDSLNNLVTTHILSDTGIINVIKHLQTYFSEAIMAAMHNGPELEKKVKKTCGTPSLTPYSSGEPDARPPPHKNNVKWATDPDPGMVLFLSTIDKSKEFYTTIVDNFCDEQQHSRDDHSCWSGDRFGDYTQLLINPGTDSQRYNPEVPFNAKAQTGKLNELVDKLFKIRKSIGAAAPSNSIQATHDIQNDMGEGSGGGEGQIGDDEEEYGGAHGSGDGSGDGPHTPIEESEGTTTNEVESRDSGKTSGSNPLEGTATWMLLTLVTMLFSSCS

The target of the assay is T1, Nord-HA (Drosophila) (UniProt Q9W192).
T1 sequence: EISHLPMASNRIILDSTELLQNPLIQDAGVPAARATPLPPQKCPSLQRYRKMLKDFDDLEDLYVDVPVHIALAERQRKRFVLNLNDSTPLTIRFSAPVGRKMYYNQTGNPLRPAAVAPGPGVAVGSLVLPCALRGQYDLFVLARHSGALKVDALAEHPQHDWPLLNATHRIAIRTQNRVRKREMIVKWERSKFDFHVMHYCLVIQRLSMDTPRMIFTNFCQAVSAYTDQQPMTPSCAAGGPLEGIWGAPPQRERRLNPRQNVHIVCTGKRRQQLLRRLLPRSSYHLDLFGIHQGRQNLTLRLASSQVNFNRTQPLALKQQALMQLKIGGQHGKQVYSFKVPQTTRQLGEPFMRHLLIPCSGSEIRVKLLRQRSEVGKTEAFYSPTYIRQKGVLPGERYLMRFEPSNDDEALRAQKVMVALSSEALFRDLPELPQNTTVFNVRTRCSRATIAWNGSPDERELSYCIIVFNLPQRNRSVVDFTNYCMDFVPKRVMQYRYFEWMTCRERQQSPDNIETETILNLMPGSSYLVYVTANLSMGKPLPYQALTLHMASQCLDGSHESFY
Nature of the assay: co-IP.

Results are given in words; binding and its absence hold for the method and conditions named. In cells and extracts the contact can be indirect. A result given as binding can be weak or reduced; the word gives no strength. Where a sequence is shown, tags or fusion partners need not be part of it.

As to Dally^ΔGAG-Myc (from UniProt Q24114), the binding result is “binds”.
